According to article PMC4148261:

Target: Recombinant His-tagged Hsp70 protein, equivalent to HSPA1A
Test: ELISA; peptide ELISA: heat shock proteins coated on MaxiSorp plates (1 µg/well/100 µl, carbonate buffer pH 9.6, 4°C overnight), blocked with PBS 2% BSA; CF-labeled peptides 100, 50, 25 ng/ml, 27°C 30 min; fluorescence counts read; both purified

binding: no binding (tested: 100 ng/ml)
Binder: NGLTLKNDFSRLEG (carboxyfluorescein (CF) label, position not stated) [carboxyfluorescein (CF-) labeled scrambled peptide]

These are yes or no findings as the source states them, for the method shown.
